Consider four substances from patent US4116950A (Hoffmann-La Roche Inc., priority 1978, dated 1978).

Where “and” joins values, the source holds several entries; their conditions need not be identical. Equal values may be shown once.

A short description of the data set: general procedure: Boc solid-phase peptide synthesis; Boc-glycyl copolystyrene-divinylbenzene resin (chloromethylated polystyrene cross-linked with 1 to 2% divinyl benzene); preformed symmetrical anhydrides of Boc-amino acids; Boc-asparagine with 1-hydro. Particulars: whole synthesis.
Setting [1] is: scale of the general procedure 0.60 mmol glycine, 0.12 mmol for final seven residues.

Under setting [1], “[Ala^6,7, Phe^27, Gly^31 ] - βh -EP (YGGFMAAEKSQTPLVTLFKNAIIKNAFKKGG; Beta-endorphin; UniProt P01189 237-267, looked up, variant T6A S7A Y27F E31G)” gave an isolated yield of 10%.
Still for that read-out and setting: for [D-Thr^2, Phe^27, Gly^31 ] - βh EP the value was 21%; for [Nle^5, Phe^27, Gly^31 ] - βh -EP, 28%.
“[Phe^27, Gly^31 ] - βh -EP (YGGFMTSEKSQTPLVTLFKNAIIKNAFKKGG; Beta-endorphin; UniProt P01189 237-267, looked up, variant Y27F E31G)” showed an isolated yield (based on starting Boc-glycyl resin, scale 0.060 mmol) of 14.4%. Besides, for the setting “scale 0.060 mmol”, the crude mass is 97 mg. The isolated mass (scale 0.060 mmol, run 1) was 41.2 mg and 29.2 mg.
